Paper PMC10970439
Results are given in words; binding and its absence hold for the method and conditions named. Binding seen in cells or lysates may run through a third protein.

By UniProt entry, the sequences of proteins in these tests, tags left out.
UniProt Q16665: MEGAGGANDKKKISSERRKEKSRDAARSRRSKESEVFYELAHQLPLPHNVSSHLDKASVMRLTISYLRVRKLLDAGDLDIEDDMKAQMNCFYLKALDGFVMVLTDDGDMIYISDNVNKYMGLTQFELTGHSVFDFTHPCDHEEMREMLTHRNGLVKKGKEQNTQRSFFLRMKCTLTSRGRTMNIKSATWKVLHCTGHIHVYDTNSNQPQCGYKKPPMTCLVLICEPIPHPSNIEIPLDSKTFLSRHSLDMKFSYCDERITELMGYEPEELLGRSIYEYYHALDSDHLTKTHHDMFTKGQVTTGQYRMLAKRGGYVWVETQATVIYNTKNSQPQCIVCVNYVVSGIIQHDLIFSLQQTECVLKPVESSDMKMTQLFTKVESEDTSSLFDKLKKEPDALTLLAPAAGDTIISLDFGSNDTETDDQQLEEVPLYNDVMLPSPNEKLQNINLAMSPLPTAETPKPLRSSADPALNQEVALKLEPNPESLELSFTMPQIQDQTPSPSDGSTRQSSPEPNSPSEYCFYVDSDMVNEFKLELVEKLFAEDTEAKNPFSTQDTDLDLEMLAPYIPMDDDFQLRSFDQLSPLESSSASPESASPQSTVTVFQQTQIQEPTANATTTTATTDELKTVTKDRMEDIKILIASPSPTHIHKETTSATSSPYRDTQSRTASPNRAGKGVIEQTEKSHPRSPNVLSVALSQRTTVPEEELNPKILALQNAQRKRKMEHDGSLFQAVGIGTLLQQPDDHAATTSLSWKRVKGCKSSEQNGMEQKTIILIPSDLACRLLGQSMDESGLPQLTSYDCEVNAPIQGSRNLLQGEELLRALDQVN
UniProt P27540: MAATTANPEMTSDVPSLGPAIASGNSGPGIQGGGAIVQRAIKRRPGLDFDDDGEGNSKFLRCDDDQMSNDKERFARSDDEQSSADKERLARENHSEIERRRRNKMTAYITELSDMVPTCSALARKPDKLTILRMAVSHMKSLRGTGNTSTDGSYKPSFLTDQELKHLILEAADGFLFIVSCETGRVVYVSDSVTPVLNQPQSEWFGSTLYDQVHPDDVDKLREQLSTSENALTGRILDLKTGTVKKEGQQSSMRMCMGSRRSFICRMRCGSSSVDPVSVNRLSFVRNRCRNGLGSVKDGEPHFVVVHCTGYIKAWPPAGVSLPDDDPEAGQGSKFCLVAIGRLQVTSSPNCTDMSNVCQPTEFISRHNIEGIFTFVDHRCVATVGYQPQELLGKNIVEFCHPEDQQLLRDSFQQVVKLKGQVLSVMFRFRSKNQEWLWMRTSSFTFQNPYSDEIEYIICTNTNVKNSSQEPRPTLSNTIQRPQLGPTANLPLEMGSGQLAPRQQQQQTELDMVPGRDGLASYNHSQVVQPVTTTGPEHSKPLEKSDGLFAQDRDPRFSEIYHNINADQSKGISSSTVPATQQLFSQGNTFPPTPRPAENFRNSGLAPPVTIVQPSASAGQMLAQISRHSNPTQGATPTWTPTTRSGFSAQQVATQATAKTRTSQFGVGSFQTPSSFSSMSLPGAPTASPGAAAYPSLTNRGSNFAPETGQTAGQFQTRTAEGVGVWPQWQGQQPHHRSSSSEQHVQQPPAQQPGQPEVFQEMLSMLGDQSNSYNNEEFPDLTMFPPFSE
UniProt P20700: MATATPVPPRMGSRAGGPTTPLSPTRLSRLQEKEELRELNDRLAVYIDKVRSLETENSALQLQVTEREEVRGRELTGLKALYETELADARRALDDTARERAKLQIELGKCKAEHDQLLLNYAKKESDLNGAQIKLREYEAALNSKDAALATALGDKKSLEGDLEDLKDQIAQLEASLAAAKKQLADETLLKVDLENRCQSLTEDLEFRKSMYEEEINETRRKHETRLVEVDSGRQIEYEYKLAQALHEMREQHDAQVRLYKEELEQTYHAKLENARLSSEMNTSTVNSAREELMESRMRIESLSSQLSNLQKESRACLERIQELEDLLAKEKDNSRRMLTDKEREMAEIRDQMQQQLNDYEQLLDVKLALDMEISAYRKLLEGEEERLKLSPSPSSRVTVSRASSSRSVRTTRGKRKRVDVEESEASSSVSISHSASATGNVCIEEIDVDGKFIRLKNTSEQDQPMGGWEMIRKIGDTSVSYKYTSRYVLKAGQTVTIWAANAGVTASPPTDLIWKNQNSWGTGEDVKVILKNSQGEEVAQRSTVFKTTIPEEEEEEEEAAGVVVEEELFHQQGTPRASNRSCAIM

Assays:
[1] = molecular target: IFI16 (human (endogenous in AB8/13 podocytes)) (UniProt Q16666); experiment: co-IP; nuclear lysates of AB8/13 podocytes untreated (DMSO) or treated with 100 µM roxadustat for 4 h; Nuclear Complex Co-IP Kit (Active Motif); anti-HIF-1α, anti-IFI16 or control IgG overnight at 4 °C, protein A/G plus agarose beads; 500 µg immunoprecipitated, immunoblot
[2] = molecular target: hypoxia-inducible factor (HIF)-1α (human (endogenous in AB8/13 podocytes)) (UniProt Q16665); experiment: as above
[3] = molecular target: T1, hypoxia-inducible factor (HIF)-1α (human (endogenous in AB8/13 podocytes)), Q16665; experiment: co-IP; nuclear fraction of AB8/13 podocytes, anti-HIF-1α precipitates, low-stringency buffers; settings: remark: other sources report otherwise
[4] = molecular target: T1, hypoxia-inducible factor (HIF)-1α …; experiment: co-IP; nuclear lysates of AB8/13 podocytes untreated (DMSO) or treated with 100 µM roxadustat for 4 h; Nuclear Complex Co-IP Kit (Active Motif); anti-HIF-1α, anti-IFI16 or control IgG overnight at 4 °C, protein A/G plus agarose beads; 500 µg immunoprecipitated, immunoblot; settings: remark: other sources report otherwise

HIF-1β (from UniProt P27540 1-789) was tested. Which binding [1] did it give?
Its binding is “no binding”.

With lamin B1 (from UniProt P20700 1-586) as the molecule, how does the binding [2] read?
Its binding is “no binding”.

B1: IFI16, Q16666 1-785 (protein)
chain: MGKKYKNIVLLKGLEVINDYHFRMVKSLLSNDLKLNLKMREEYDKIQIADLMEEKFRGDAGLGKLIKIFEDIPTLEDLAETLKKEKLKVKGPALSRKRKKEVDATSPAPSTSSTVKTEGAEATPGAQKRKKSTKEKAGPKGSKVSEEQTQPPSPAGAGMSTAMGRSPSPKTSLSAPPNSSSTENPKTVAKCQVTPRRNVLQKRPVIVKVLSTTKPFEYETPEMEKKIMFHATVATQTQFFHVKVLNTSLKEKFNGKKIIIISDYLEYDSLLEVNEESTVSEAGPNQTFEVPNKIINRAKETLKIDILHKQASGNIVYGVFMLHKKTVNQKTTIYEIQDDRGKMDVVGTGQCHNIPCEEGDKLQLFCFRLRKKNQMSKLISEMHSFIQIKKKTNPRNNDPKSMKLPQEQRQLPYPSEASTTFPESHLRTPQMPPTTPSSSFFTKKSEDTISKMNDFMRMQILKEGSHFPGPFMTSIGPAESHPHTPQMPPSTPSSSFLTTKSEDTISKMNDFMRMQILKEGSHFPGPFMTSIGPAESHPHTPQMPPSTPSSSFLTTLKPRLKTEPEEVSIEDSAQSDLKEVMVLNATESFVYEPKEQKKMFHATVATENEVFRVKVFNIDLKEKFTPKKIIAIANYVCRNGFLEVYPFTLVADVNADRNMEIPKGLIRSASVTPKINQLCSQTKGSFVNGVFEVHKKNVRGEFTYYEIQDNTGKMEVVVHGRLTTINCEEGDKLKLTCFELAPKSGNTGELRSVIHSHIKVIKTRKNKKDILNPDSSMETSPDFFF
Which results are given for B1?
binding [3]: no binding; binding [4]: no binding
